These are yes or no findings as the source states them, for the method shown. In cells and extracts the contact can be indirect. Some binding calls cover weakened binding; strength is not graded here. Where a sequence is shown, tags or fusion partners need not be part of it.
Target: T1, Orbit 1071-1492-GFP (Drosophila) (UniProt Q9NBD7)
T1 sequence: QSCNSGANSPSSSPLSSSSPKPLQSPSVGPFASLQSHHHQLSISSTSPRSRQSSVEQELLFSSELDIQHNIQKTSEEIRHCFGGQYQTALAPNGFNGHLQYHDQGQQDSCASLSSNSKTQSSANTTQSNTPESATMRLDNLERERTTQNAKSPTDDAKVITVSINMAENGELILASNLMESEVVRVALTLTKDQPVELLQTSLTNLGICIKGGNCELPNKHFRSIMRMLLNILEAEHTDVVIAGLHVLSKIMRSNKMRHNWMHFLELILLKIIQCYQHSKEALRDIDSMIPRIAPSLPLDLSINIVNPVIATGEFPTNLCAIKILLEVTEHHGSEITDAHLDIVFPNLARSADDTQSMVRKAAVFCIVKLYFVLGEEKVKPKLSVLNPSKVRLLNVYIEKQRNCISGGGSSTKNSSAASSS
Experiment: co-IP; lysate of S2 cells co-expressing mCherry-tagged Msps 1406–1596 (wild type or mutant) and GFP-tagged pieces of the Orbit TOG3-CT fragment

binding: binds
B1: mCherry-tagged Msps 1406–1596 (domain or fragment, UniProt Q9VEZ3 1406-1596)
chain: RAKKTKKPTPPPSVDVPAPQRHDSIEIEDAEVGNGCDELPPPDEDGTFDQAPSSQLLLLQQQLQQLQQQAQQQKPSGPFGLDSQVISEIEKDWVRVDQMEQKPLLNVDISSLDEPIKVRPTRAGIHYPQEKFDRLISRQHYMQQTLTTSPSSTAGMTSGVSPYRSPMRLQHQQPQQQLENNIPNLADVLPK
